# According to article PMC7819943, “Rice protein-binding microarrays: a tool to detect cis-acting elements near promoter regions in rice”:
# The list shows a part of the results.
# Target: T1, OsSMF1 (Oryza sativa, UniProt Q6ZLB0 1-436)
# T1 sequence: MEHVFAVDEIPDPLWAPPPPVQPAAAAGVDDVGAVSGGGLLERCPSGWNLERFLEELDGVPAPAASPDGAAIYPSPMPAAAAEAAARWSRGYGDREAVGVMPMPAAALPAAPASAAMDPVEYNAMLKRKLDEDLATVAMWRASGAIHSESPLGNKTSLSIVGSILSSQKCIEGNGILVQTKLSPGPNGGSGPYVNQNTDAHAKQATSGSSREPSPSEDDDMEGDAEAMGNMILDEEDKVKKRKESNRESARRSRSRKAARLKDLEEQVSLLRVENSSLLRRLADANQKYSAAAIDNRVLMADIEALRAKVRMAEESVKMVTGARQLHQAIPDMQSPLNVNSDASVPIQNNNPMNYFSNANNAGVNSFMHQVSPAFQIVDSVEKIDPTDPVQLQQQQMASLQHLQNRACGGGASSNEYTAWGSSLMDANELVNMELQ
# Assay: protein-binding microarray (RPBM); PBS, 2% BSA, 51.3 ng/ul salmon testes DNA, 50 uM zinc acetate, 200 nM TF, 25 C, 1 h; high values mean tight binding
# Conditions: protein: recombinant; tags: N-terminal polyhistidine and DsRed monomer fusion (pET32a); chain copies: 2; label: CyDye5-dUTP incorporated in the synthesized complementary strand; 3' TTTTT single-stranded linker to array surface; dsDNA, one strand shown
# Summary of the method: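 Transcription factors were each fused at the N-terminus to a polyhistidine tag plus DsRed and expressed in E. coli BL21-CodonPlus before Ni–NTA purification. Binding to a double-stranded custom Agilent array was carried out with 200 nM protein at 25 °C for 1 h in PBS, 2% BSA, salmon testes DNA and 50 µM zinc acetate. The binding signal is per-feature fluorescence intensity, in arbitrary units, on an Axon 4000B scanner.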
row,Sequence,binding signal
1,ACTGTAGAACAATTGATAAAGTCACTGGTATATTATAGAACGGAGTCACCTAGTGCAG,34800 fluorescence intensity (a.u.)
2,ACTTATTCCTAGGCCCAAACACCCGGCTCACATCACATCGCGGAGTCACCTAGTGCAG,3340 fluorescence intensity (a.u.)
3,CTTATATAGAGAAAATTAGCAACATCTACAATACAAAATTCGGAGTCACCTAGTGCAG,34600 fluorescence intensity (a.u.)
4,CTTCGAGCTTTACACGGTGTAAGGATAGAGCAGTAGTATTCGGAGTCACCTAGTGCAG,3270 fluorescence intensity (a.u.)
5,CATTGCTAGCGGCTCGACACGTGTCGCCCGGACGAGCCCCCGGAGTCACCTAGTGCAG,16600 fluorescence intensity (a.u.)
6,ATTATTTAAGTGATGATATGTAAATAACGAGTGAAGTTTTCGGAGTCACCTAGTGCAG,3400 fluorescence intensity (a.u.)
7,AAACATTAATCATGCATGAGCAGTATGCCCGGCAACTGGACGGAGTCACCTAGTGCAG,17200 fluorescence intensity (a.u.)
8,TGCATAAGTGTCCGTACCAGTACGGTCAGAGTGACATATGCGGAGTCACCTAGTGCAG,3770 fluorescence intensity (a.u.)
9,CGCACCCGCACAGCACCACACCACCTGCCTAGCGCCAAGCCGGAGTCACCTAGTGCAG,3560 fluorescence intensity (a.u.)
10,TTTTAAGAGATAGTTTTCCCGCTAGGCGCCACGACGGAACCGGAGTCACCTAGTGCAG,4030 fluorescence intensity (a.u.)
11,TCAACTAGGAGCGCGTGTCACACTGTCAGTCCAGTGGGCCCGGAGTCACCTAGTGCAG,3210 fluorescence intensity (a.u.)
12,TATCATGACGGCGGCGTGTTCGATGGAGATAAAATGTGCCCGGAGTCACCTAGTGCAG,3170 fluorescence intensity (a.u.)
13,GATATTTAACCATTTGCCACATTTAGATGTGGCAATTAACCGGAGTCACCTAGTGCAG,3250 fluorescence intensity (a.u.)
14,CGCCATCGCCAACGCCAACGCCTCCGCGGACTCCATTGTCCGGAGTCACCTAGTGCAG,3650 fluorescence intensity (a.u.)
15,ATACATGGTATGTGTGCACACGTCGCATGTCACGTGCTGTCGGAGTCACCTAGTGCAG,7850 fluorescence intensity (a.u.)
16,CGATGAGGTACTATACTAACAATGTGCTACTGTCATGCCACGGAGTCACCTAGTGCAG,3770 fluorescence intensity (a.u.)
17,CCTACTCCTGTCCGGGGATGAATCCGCCGAGTGTATTATTCGGAGTCACCTAGTGCAG,3250 fluorescence intensity (a.u.)
18,GCGTGGCGGCGCCGGTGGTGGTGGAGGAGCGCCTGCCACGCGGAGTCACCTAGTGCAG,3780 fluorescence intensity (a.u.)
19,GCGGCAGCTCACGGCCTGTGTCACCCAGCAATATGGCTAACGGAGTCACCTAGTGCAG,4720 fluorescence intensity (a.u.)
20,GATATAATTGCCACGTAAGCGCCACGTCAATGCCACGTGCCGGAGTCACCTAGTGCAG,52100 fluorescence intensity (a.u.)
21,ACTTTCACAAAACTATACACATATCACTTTTCAATAAATACGGAGTCACCTAGTGCAG,19900 fluorescence intensity (a.u.)

# At a glance, some entries already given:
row,Sequence,binding signal
17,CCTACTCCTGTCCGGGGATGAATCCGCCGAGTGTATTATTCGGAGTCACCTAGTGCAG,3250 fluorescence intensity (a.u.)
18,GCGTGGCGGCGCCGGTGGTGGTGGAGGAGCGCCTGCCACGCGGAGTCACCTAGTGCAG,3780 fluorescence intensity (a.u.)
19,GCGGCAGCTCACGGCCTGTGTCACCCAGCAATATGGCTAACGGAGTCACCTAGTGCAG,4720 fluorescence intensity (a.u.)

# (continued)

row,Sequence,binding signal
1,GTGTCGAAGCGGCCATGCCACCTCTCTCTGTTGCGACCATCGGAGTCACCTAGTGCAG,3160 fluorescence intensity (a.u.)
2,GATAATTAAGCTGATAGCGAGACATAACAAGCTCTGTTCTCGGAGTCACCTAGTGCAG,49600 fluorescence intensity (a.u.)
3,AATTTTAACGCGAACTAGACACACCCAAAATGAGTCTGGTCGGAGTCACCTAGTGCAG,33800 fluorescence intensity (a.u.)
4,CTACGCGATGAAAGTATCTGTCATCACGCCATCATCCACTCGGAGTCACCTAGTGCAG,5640 fluorescence intensity (a.u.)
5,CTCCCCGCCTCGTTCCCGTTGAGCTCGCCGCCGCTAATATCGGAGTCACCTAGTGCAG,5580 fluorescence intensity (a.u.)
6,GCGCTGACCGTGGTCAAAGCGCCACGTCGGACTAAACCGCCGGAGTCACCTAGTGCAG,19700 fluorescence intensity (a.u.)
7,TAAGTTTAGTAGTTGAGTCATACATCTATCTCATATAAGTCGGAGTCACCTAGTGCAG,5100 fluorescence intensity (a.u.)
8,ATGTTCAATGGCGGCATTTTATTCTTGACTGGACGATTATCGGAGTCACCTAGTGCAG,3310 fluorescence intensity (a.u.)
9,CCTTCCATGGTGGTCGCCCACATGGCATAGAGCTCACAAGCGGAGTCACCTAGTGCAG,3200 fluorescence intensity (a.u.)
10,GCCGGCGGCAGGGTGGGGCGGGGACGCCTGCCGGCGTCGGCGGAGTCACCTAGTGCAG,3570 fluorescence intensity (a.u.)
11,ATCTAGCACGAACGGCTAGGATGCTCTGCCGGGTCAGCCCCGGAGTCACCTAGTGCAG,6420 fluorescence intensity (a.u.)
12,CACTGCAATGACTAGATTACGTGCTCTTTCGCAACCCATACGGAGTCACCTAGTGCAG,5140 fluorescence intensity (a.u.)
13,ACATTGACACTAGAATTTAAACTCTGGTAGGTAGAGTCATCGGAGTCACCTAGTGCAG,3200 fluorescence intensity (a.u.)
14,ACATATAATTGCCACGTCAGCGCCACATCAATGCCACGTGCGGAGTCACCTAGTGCAG,26100 fluorescence intensity (a.u.)
15,ATGGTAATCATTGTGGGTGGCATTCAAATATGACGCAGATCGGAGTCACCTAGTGCAG,4670 fluorescence intensity (a.u.)
16,AACCACAACCTGCCACGTACTCTACTCTACCCGCCGCGCGCGGAGTCACCTAGTGCAG,12000 fluorescence intensity (a.u.)
17,GGGTATCATGGTTGGTACTCACACGTATTAGATCTGGTACCGGAGTCACCTAGTGCAG,3160 fluorescence intensity (a.u.)
18,TGTCATTACAGCCCTGTCACCTCAAGAAATCATGGAACTGCGGAGTCACCTAGTGCAG,3940 fluorescence intensity (a.u.)
19,CCAAGCTCTCCAAATTAACGGGTCATAGGTCGTGCCTGGCCGGAGTCACCTAGTGCAG,20500 fluorescence intensity (a.u.)
20,AAAGCTTGCGCACGCCACGTCGCCGGCCTCGAGTCGACGACGGAGTCACCTAGTGCAG,8800 fluorescence intensity (a.u.)
21,TTTTGACATGCCACCTCTCCAATCTTCATGTCCATCTTTGCGGAGTCACCTAGTGCAG,3300 fluorescence intensity (a.u.)
